Measured values reported in PMC7054324.
No constants are given. Whether binding was seen depends on the method and setting. Binding seen in cells or lysates may run through a third protein. Some binding calls cover weakened binding; strength is not graded here.

Amino acid sequences for entries named in this document (tags omitted). Residues count along the entry.
UniProt Q9NZQ7, residues 19-290: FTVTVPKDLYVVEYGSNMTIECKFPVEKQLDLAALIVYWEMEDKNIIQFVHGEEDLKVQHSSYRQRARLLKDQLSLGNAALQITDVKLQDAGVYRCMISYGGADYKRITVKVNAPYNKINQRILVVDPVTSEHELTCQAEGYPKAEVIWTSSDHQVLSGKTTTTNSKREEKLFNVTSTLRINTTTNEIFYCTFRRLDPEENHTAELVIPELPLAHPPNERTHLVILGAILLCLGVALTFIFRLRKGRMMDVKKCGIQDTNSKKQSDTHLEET
UniProt O60934: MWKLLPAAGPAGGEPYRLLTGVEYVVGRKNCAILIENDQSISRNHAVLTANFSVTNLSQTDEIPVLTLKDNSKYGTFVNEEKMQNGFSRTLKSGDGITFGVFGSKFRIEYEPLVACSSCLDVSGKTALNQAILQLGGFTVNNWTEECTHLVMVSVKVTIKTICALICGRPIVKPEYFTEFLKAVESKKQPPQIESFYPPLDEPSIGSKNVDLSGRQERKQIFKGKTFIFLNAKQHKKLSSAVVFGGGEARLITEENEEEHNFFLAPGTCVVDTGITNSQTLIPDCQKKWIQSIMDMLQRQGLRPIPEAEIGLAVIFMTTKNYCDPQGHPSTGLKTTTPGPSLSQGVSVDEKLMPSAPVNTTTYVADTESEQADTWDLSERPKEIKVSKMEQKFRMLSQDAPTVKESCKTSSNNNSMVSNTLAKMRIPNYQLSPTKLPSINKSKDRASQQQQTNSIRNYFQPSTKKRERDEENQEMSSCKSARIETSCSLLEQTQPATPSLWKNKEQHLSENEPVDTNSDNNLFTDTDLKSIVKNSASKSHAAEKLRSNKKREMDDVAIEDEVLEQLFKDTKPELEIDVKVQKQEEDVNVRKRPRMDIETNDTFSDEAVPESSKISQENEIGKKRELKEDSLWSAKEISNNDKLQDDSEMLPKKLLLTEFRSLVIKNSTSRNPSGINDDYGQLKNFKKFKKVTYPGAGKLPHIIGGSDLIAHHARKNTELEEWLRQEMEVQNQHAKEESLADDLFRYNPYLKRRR

Molecular target: programmed cell death ligand 1 (PD-L1) (human (endogenous in JHU006 and JHU020)) (UniProt Q9NZQ7)
Experiment: co-IP; lysates of JHU006 and JHU020 cells incubated with monoclonal mouse anti-human PD-L1 (1-2 ug per 100-500 ug total protein) for 3-4 h at 4 °C; captured on Protein A/G Sepharose beads, washed, eluted; western blot

NBS1 (from UniProt O60934 1-754)
binding: binds
